Values from PubChem BioAssay AID1259254 (NCATS, 2017)
Test: 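Finding genes that stop cells copying their DNA twice in one cycle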 (primary screen). Cells: human HCT116 colorectal cancer cells. Knock-down reagent: single siRNA against human genes. Timing: 3 days. Read-out: 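Imaged Hoechst DNA stain sorts each cell into a cycle phase by DNA amount; per plate, G2 fraction set to 0% for non-targeting and 100% for GMNN siRNA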. Direction: G2 robust z-score and G2 cells, % of GMNN control: higher = more G2 cells, more excess DNA replication. Active means: 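Active siRNAs have a G2 robust z of 5 or more median absolute deviations over the median, which in these data means about 38% or higher of GMNN control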.
Here is one part, drawn at random, of about 59,000 deposited reagents. Of all reagents, about 1,550 (2.6%) were called active. 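G2 share is only a proxy for re-replication; each gene was hit by three separate siRNAs, and active genes were retested.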 The numbers tell different reagents against one gene apart. Further read-outs or replicates are left out here. The record does not give: the amount of reagent.

After knock-down of COA6 (cytochrome c oxidase assembly factor 6) #1 the results were G2 robust z-score 1.94; G2 cells, % of GMNN control 16.6; inactive.
With knock-down of COA6 (cytochrome c oxidase assembly factor 6) #2, the screen gave G2 robust z-score -0.296; G2 cells, % of GMNN control 0.885; inactive.
COA6 (cytochrome c oxidase assembly factor 6) #3 gave G2 robust z-score -1.42; G2 cells, % of GMNN control -7.03; inactive.
After knock-down of INTS2 (integrator complex subunit 2) #1, the record shows G2 robust z-score 0.271; G2 cells, % of GMNN control 4.87; inactive.
Silencing of INTS2 (integrator complex subunit 2) #2 came out at: G2 robust z-score -1.26; G2 cells, % of GMNN control -5.88; inactive.
For INTS2 (integrator complex subunit 2) #3 the deposit lists G2 robust z-score 0.449; G2 cells, % of GMNN control 6.13; inactive.
With knock-down of TSPAN6 (tetraspanin 6) #1 the results were G2 robust z-score -0.0373; G2 cells, % of GMNN control 2.71; inactive.
Against TSPAN6 (tetraspanin 6) #2, the entry reads G2 robust z-score 2.54; G2 cells, % of GMNN control 20.9; inactive.
Depletion of TSPAN6 (tetraspanin 6) #3 gave: G2 robust z-score -0.183; G2 cells, % of GMNN control 1.68; inactive.
For TSPAN18 (tetraspanin 18) #1 the deposit lists G2 robust z-score 1.51; G2 cells, % of GMNN control 13.6; inactive.
Knock-down of TSPAN18 (tetraspanin 18) #2 resulted in: G2 robust z-score -0.259; G2 cells, % of GMNN control 1.15; inactive.
Silencing of TSPAN18 (tetraspanin 18) #3 came out at: G2 robust z-score 0.498; G2 cells, % of GMNN control 6.47; inactive.
Against IRGQ (immunity related GTPase Q) #1 the deposit lists G2 robust z-score -0.385; G2 cells, % of GMNN control 0.255; inactive.
After knock-down of IRGQ (immunity related GTPase Q) #2, the screen gave G2 robust z-score 8.18; G2 cells, % of GMNN control 60.5; active.
With knock-down of IRGQ (immunity related GTPase Q) #3, the screen gave G2 robust z-score 0.266; G2 cells, % of GMNN control 4.84; inactive.
Depletion of SETD1B (SET domain containing 1B, histone lysine methyltransferase) #1 resulted in: G2 robust z-score 0.153; G2 cells, % of GMNN control 4.04; inactive.
Silencing of SETD1B (SET domain containing 1B, histone lysine methyltransferase) #2 came out at: G2 robust z-score 1.39; G2 cells, % of GMNN control 12.8; inactive.
SETD1B (SET domain containing 1B, histone lysine methyltransferase) #3 scored G2 robust z-score -0.82; G2 cells, % of GMNN control -2.8; inactive.
Silencing of FMO4 (flavin containing dimethylaniline monoxygenase 4) #1 resulted in: G2 robust z-score -0.068; G2 cells, % of GMNN control 2.49; inactive.
Against FMO4 (flavin containing dimethylaniline monoxygenase 4) #2, the entry reads G2 robust z-score -0.048; G2 cells, % of GMNN control 2.63; inactive.
FMO4 (flavin containing dimethylaniline monoxygenase 4) #3 gave G2 robust z-score -0.981; G2 cells, % of GMNN control -3.93; inactive.
After knock-down of TCTN1 (tectonic family member 1) #1 the results were G2 robust z-score -0.483; G2 cells, % of GMNN control -0.431; inactive.
After knock-down of TCTN1 (tectonic family member 1) #2, the record shows G2 robust z-score 3.05; G2 cells, % of GMNN control 24.5; inactive.
With knock-down of TCTN1 (tectonic family member 1) #3, the record shows G2 robust z-score 0.235; G2 cells, % of GMNN control 4.62; inactive.
With knock-down of MDK (midkine) #1 the results were G2 robust z-score 0.675; G2 cells, % of GMNN control 7.72; inactive.
MDK (midkine) #2 gave G2 robust z-score -0.187; G2 cells, % of GMNN control 1.65; inactive.
MDK (midkine) #3 showed G2 robust z-score -1.16; G2 cells, % of GMNN control -5.16; inactive.
Silencing of MAPKAPK5 (MAPK activated protein kinase 5) #1 came out at: G2 robust z-score -0.157; G2 cells, % of GMNN control 1.86; inactive.
Against MAPKAPK5 (MAPK activated protein kinase 5) #2 the deposit lists G2 robust z-score 0.0441; G2 cells, % of GMNN control 3.28; inactive.
MAPKAPK5 (MAPK activated protein kinase 5) #3 scored G2 robust z-score -0.589; G2 cells, % of GMNN control -1.17; inactive.
